Laboratory results: PubChem BioAssay AID720505 (Drosophila RNAi Screening Center, 2013)

Purpose: 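Genes needed for store-operated calcium entry in fly cells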 (primary screen)
System: Drosophila S2R+ cells
Reagents: long dsRNA against Drosophila genes
Challenge: thapsigargin (2 µM) in calcium-free buffer to empty internal stores, then 2 mM calcium added back
Read-out: 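Fluo-4 signal in 384-well plates read on a FLIPR after thapsigargin (2 µM, calcium-free) store depletion and 2 mM calcium add-back; unnormalised mean endpoint per well; screen run twice, selected wells retested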
Scale: calcium signal and retest calcium signal: higher = more calcium entry after store depletion
Call rule: 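About 1500 genes called as lowering calcium entry, by varying amounts, judged against per-plate control wells with STIM1 as positive and Rho1 as negative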
Calls: active = called as lowering calcium entry; inactive = not called
The deposit covers about 20,000 reagents; this is an unselected part of those that have a named target and a result. In the full data, about 2,100 (10%) were called active. 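Raw plate signals without normalisation; calls rest on control-based scores that were not deposited; replicate 2 separates called from uncalled poorly.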 A number with no mark means an inactive call. Not given: the amount of reagent, the time to read-out.

| Gene | amplicon | calcium signal, replicate 1 | calcium signal, replicate 2 | retest calcium signal, replicate 1 | retest calcium signal, replicate 2 |
| --- | --- | --- | --- | --- | --- |
| CG5890 | DRSC15909 | 226 | 197 | – | – |
| Or67d | DRSC10158 | 102 | 67.9 | – | – |
| Alg2 | DRSC08298 | 75.2 | 132 | – | – |
| CG33462 | DRSC22902 | 126 | 148 | – | – |
| kek3 | DRSC03553 | 158 | 110 | 114 | 122 |
| kek3 | DRSC22830 | 123 | 105 | – | – |
| CG30467 | DRSC07097 | 111 | 175 | – | – |
| CG14105 | DRSC10107 | 91.5 | 77.6 | – | – |
| Mkk4 | DRSC16739 | 118 | 170 | – | – |
| CG34396 | DRSC04245 | 61.3 | 180 | – | – |
| CG34396 | DRSC04246 | 48.3 | 193 | – | – |
| jumu | DRSC16651 | 158 | 121 | – | – |
| CG13589 | DRSC04225 | 111 | 189 | – | – |
| CG4440 | DRSC02747 | 57.7 (active) | 87.2 | – | – |
| CG31373 | DRSC16052 | 162 | 115 | – | – |
| CG43109 | DRSC05754 | 113 | 102 | – | – |
| SmydA-1 | DRSC07200 | 194 | 162 | – | – |
| beat-Ia | DRSC03489 | 120 | 124 | – | – |
| Jon25Biii | DRSC03115 | 125 | 108 | – | – |
| lov | DRSC04665 | 67.6 (active) | 51.1 | 90 | 186 |
| Gs1 | DRSC00753 | 76.6 | 148 | – | – |
| Taf11 | DRSC03448 | 178 | 142 | – | – |
| CG13532 | DRSC04174 | 134 | 272 | – | – |
| Eig71Eb | DRSC11149 | 75 | 156 | – | – |
| CG6290 | DRSC19979 | 130 | 129 | – | – |
| CG11313 | DRSC14295 | 220 | 140 | – | – |
| Dhc16F | DRSC20242 | 112 | 150 | – | – |
| CG9795 | DRSC12336 | 134 | 119 | – | – |
| nullo | DRSC18807 | 210 | 139 | – | – |
| CG17959 | DRSC18142 | 85.2 | 157 | – | – |
| Polr2B | DRSC16831 | 60 (active) | 91.8 | – | – |
| CG34115 | DRSC03840 | 125 | 7704 | – | – |
| mthl7 | DRSC10852 | 98.2 | 86.9 | – | – |
| CG43052 | DRSC03059 | 104 | 96.7 | – | – |
| sqz | DRSC16980 | 93.4 (active) | 108 | – | – |
| Stoml2 | DRSC04326 | 101 | 95.6 | – | – |
| CG13226 | DRSC06346 | 121 | 139 | – | – |
| Nmda1 | DRSC07479 | 169 | 145 | – | – |
| CG1603 | DRSC06602 | 69.3 (active) | 206 | – | – |
| CG15439 | DRSC00453 | 109 | 105 | – | – |
| Sbds | DRSC10992 | 110 | 164 | – | – |
| CG10749 | DRSC09798 | 65.6 | 84.7 | – | – |
| CG8260 | DRSC20098 | 93.8 | 151 | – | – |
| CG8136 | DRSC16385 | 108 | 138 | – | – |
| Kap-alpha1 | DRSC11356 | 120 | 139 | – | – |
| CG12520 | DRSC09892 | 68.7 (active) | 49.4 | – | – |
| Sys1 | DRSC14372 | 124 | 151 | – | – |
| for | DRSC00195 | 96.3 | 89.2 | – | – |
| for | DRSC00818 | 118 | 290 | – | – |
| wdn | DRSC17095 | 102 | 181 | – | – |
| CG6428 | DRSC18402 | 173 | 135 | – | – |
| Surf1 | DRSC11295 | 93.9 | 74 | – | – |
| Surf1 | DRSC11394 | 111 | 109 | – | – |
| Hs6st | DRSC14348 | 135 | 90.5 | – | – |
| Hs6st | DRSC15182 | 209 | 196 | – | – |
| Hs6st | DRSC15581 | 148 | 105 | 8476 | 124 |
| Hs6st | DRSC21732 | 116 | 105 | – | – |
| tipE | DRSC08738 | 144 | 83.4 | – | – |
| CG17593 | DRSC00504 | 153 | 86.4 | – | – |
| CG13801 | DRSC08335 | 90.3 | 89 | – | – |
| CG42241 (retired record) | DRSC04007 | 104 | 104 | – | – |
| CG11378 | DRSC18627 | 104 | 138 | – | – |
| pb | DRSC12629 | 136 | 173 | – | – |
| Msr-110 | DRSC11227 | 90 | 106 | – | – |
| Obp73a | DRSC09907 | 95.1 | 116 | – | – |
| CG42450 | DRSC20022 | 101 | 87.2 | – | – |
| CG42450 | DRSC22751 | 115 | 203 | – | – |
| Glo1 | DRSC06657 | 108 | 131 | – | – |
| roq | DRSC10227 | 158 | 89.7 | – | – |
| Ttd14 | DRSC06632 | 125 | 110 | – | – |
| Ttd14 | DRSC06942 | 187 | 151 | – | – |
| RpS5b | DRSC16173 | 141 | 180 | – | – |
| BaraB | DRSC06420 | 98.8 | 74.4 | – | – |
| CG31431 | DRSC14589 | 235 | 193 | – | – |
| FRG1 | DRSC10648 | 73.5 | 148 | – | – |
| CG8476 | DRSC16426 | 104 | 147 | – | – |
| CG16863 | DRSC01892 | 153 | 150 | – | – |
| CG12003 | DRSC08214 | 127 | 117 | – | – |
| betaTub65B | DRSC11393 | 82.9 | 65.9 | – | – |
| Dgp-1 | DRSC07400 | 177 | 121 | – | – |
| CG16743 | DRSC02514 | 185 | 207 | – | – |
| JYalpha | DRSC17224 | 128 | 140 | – | – |
| CG5727 | DRSC02882 | 125 | 101 | – | – |

Entries listed so far whose target name starts with F or f:
| Gene | amplicon | calcium signal, replicate 1 | calcium signal, replicate 2 | retest calcium signal, replicate 1 | retest calcium signal, replicate 2 |
| --- | --- | --- | --- | --- | --- |
| for | DRSC00195 | 96.3 | 89.2 | – | – |
| for | DRSC00818 | 118 | 290 | – | – |
| FRG1 | DRSC10648 | 73.5 | 148 | – | – |
